{"source": "the supplement of paper PMC8728848", "assay_in_all_cases": "glycan array binding signal (z-score within array); higher = stronger binding", "conditions_in_all_cases": "glycan notation: IUPAC condensed, linker removed; mutation: Q318A", "key": {"Fuc(a1-2)Gal": {"target": "Fuc(a1-2)Gal", "how_it_was_run": "(§1)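 The Consortium for Functional Glycomics database supplied 3228 glycan arrays, of which those lacking an available protein sequence were dropped. The binding signal, a within-array Z-score, was averaged across arrays of the same protein sequence and across linkers. Negative scores can be read as non-binding.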"}, "Fuc(a1-2)Gal(b1-3)GalNAc": {"target": "Fuc(a1-2)Gal(b1-3)GalNAc", "how_it_was_run": "as §1"}, "[1]": {"target": "Fuc(a1-2)Gal(b1-3)GalNAc(a1-3)[Fuc(a1-2)]Gal(b1-4)Glc", "how_it_was_run": "as §1"}, "[2]": {"target": "Fuc(a1-2)Gal(b1-3)GalNAc(a1-3)[Fuc(a1-2)]Gal(b1-4)GlcNAc", "how_it_was_run": "as §1"}, "[3]": {"target": "Fuc(a1-2)Gal(b1-3)GalNAc(b1-3)Gal", "how_it_was_run": "as §1"}, "[4]": {"target": "Fuc(a1-2)Gal(b1-3)GalNAc(b1-3)Gal(a1-4)Gal(b1-4)Glc", "how_it_was_run": "as §1"}, "[5]": {"target": "Fuc(a1-2)Gal(b1-3)GalNAc(b1-4)[Neu5Ac(a2-3)]Gal(b1-4)Glc", "how_it_was_run": "as §1"}, "Fuc(a1-2)Gal(b1-3)GlcNAc": {"target": "Fuc(a1-2)Gal(b1-3)GlcNAc", "how_it_was_run": "as §1"}, "[6]": {"target": "Fuc(a1-2)Gal(b1-3)GlcNAc(b1-2)Man(a1-3)[Fuc(a1-2)Gal(b1-3)GlcNAc(b1-2)Man(a1-6)]Man(b1-4)GlcNAc(b1-4)GlcNAc", "how_it_was_run": "as §1"}, "[7]": {"target": "Fuc(a1-2)Gal(b1-3)GlcNAc(b1-2)Man(a1-3)[Fuc(a1-2)Gal(b1-3)GlcNAc(b1-2)Man(a1-6)]Man(b1-4)GlcNAc(b1-4)[Fuc(a1-6)]GlcNAc", "how_it_was_run": "as §1"}, "[8]": {"target": "Fuc(a1-2)Gal(b1-3)GlcNAc(b1-3)Gal(b1-4)Glc", "how_it_was_run": "as §1"}, "[9]": {"target": "Fuc(a1-2)Gal(b1-3)GlcNAc(b1-3)GalNAc", "how_it_was_run": "as §1"}, "[10]": {"target": "Fuc(a1-2)Gal(b1-3)GlcNAc(b1-3)[Fuc(a1-2)Gal(b1-3)GlcNAc(b1-6)]GalNAc", "how_it_was_run": "as §1"}, "[11]": {"target": "Fuc(a1-2)Gal(b1-3)GlcNAc(b1-3)[Gal(b1-4)GlcNAc(b1-6)]Gal(b1-4)Glc", "how_it_was_run": "as §1"}, "[12]": {"target": "Fuc(a1-2)Gal(b1-3)GlcNAc(b1-3)[Neu5Ac(a2-6)Gal(b1-4)GlcNAc(b1-6)]Gal(b1-4)Glc", "how_it_was_run": "as §1"}, "[13]": {"target": "Fuc(a1-2)Gal(b1-3)GlcNAc6S", "how_it_was_run": "as §1"}, "[14]": {"target": "Fuc(a1-2)Gal(b1-3)[Fuc(a1-4)]GlcNAc", "how_it_was_run": "as §1"}, "[15]": {"target": "Fuc(a1-2)Gal(b1-3)[Fuc(a1-4)]GlcNAc(b1-2)Man(a1-3)[Fuc(a1-2)Gal(b1-3)[Fuc(a1-4)]GlcNAc(b1-2)Man(a1-3)]Man(b1-4)GlcNAc(b1-4)GlcNAc", "how_it_was_run": "as §1"}, "[16]": {"target": "Fuc(a1-2)Gal(b1-3)[Fuc(a1-4)]GlcNAc(b1-2)Man(a1-3)[Fuc(a1-2)Gal(b1-3)[Fuc(a1-4)]GlcNAc(b1-2)Man(a1-6)]Man(b1-4)GlcNAc(b1-4)[Fuc(a1-6)]GlcNAc(b1-4)[Fuc(a1-6)]GlcNAc", "how_it_was_run": "as §1"}, "[17]": {"target": "Fuc(a1-2)Gal(b1-3)[Fuc(a1-4)]GlcNAc(b1-3)[Fuc(a1-3)[Gal(b1-4)]GlcNAc(b1-6)]Gal(b1-4)Glc", "how_it_was_run": "as §1"}, "[18]": {"target": "Fuc(a1-2)Gal(b1-3)[Fuc(a1-4)]GlcNAc(b1-3)[Gal(b1-4)GlcNAc(b1-6)]Gal(b1-4)Glc", "how_it_was_run": "as §1"}, "[19]": {"target": "Fuc(a1-2)Gal(b1-4)Fuc(a1-3)]GlcNAc(b1-2)Man(a1-3)[Fuc(a1-2)Gal(b1-4)[Fuc(a1-3)]GlcNAc(b1-2)Man(a1-6)]Man(b1-4)GlcNAc(b1-4)GlcNAc", "how_it_was_run": "as §1"}, "Fuc(a1-2)Gal(b1-4)Glc": {"target": "Fuc(a1-2)Gal(b1-4)Glc", "how_it_was_run": "as §1"}, "Fuc(a1-2)Gal(b1-4)Glc6S": {"target": "Fuc(a1-2)Gal(b1-4)Glc6S", "how_it_was_run": "as §1"}, "Fuc(a1-2)Gal(b1-4)GlcNAc": {"target": "Fuc(a1-2)Gal(b1-4)GlcNAc", "how_it_was_run": "as §1"}, "[20]": {"target": "Fuc(a1-2)Gal(b1-4)GlcNAc(b1-2)Man", "how_it_was_run": "as §1"}, "[21]": {"target": "Fuc(a1-2)Gal(b1-4)GlcNAc(b1-2)Man(a1-3)[Fuc(a1-2)Gal(b1-4)GlcNAc(b1-2)Man(a1-6)]Man(b1-4)GlcNAc(b1-4)GlcNAc", "how_it_was_run": "as §1"}, "[22]": {"target": "Fuc(a1-2)Gal(b1-4)GlcNAc(b1-2)Man(a1-3)[Fuc(a1-2)Gal(b1-4)GlcNAc(b1-2)Man(a1-6)]Man(b1-4)GlcNAc(b1-4)[Fuc(a1-6)]GlcNAc", "how_it_was_run": "as §1"}, "[23]": {"target": "Fuc(a1-2)Gal(b1-4)GlcNAc(b1-2)[Fuc(a1-2)Gal(b1-4)GlcNAc(b1-4)]Man(a1-3)[Fuc(a1-2)Gal(b1-4)GlcNAc(b1-2)Man(a1-6)]Man(b1-4)GlcNAc(b1-4)GlcNAc", "how_it_was_run": "as §1"}, "[24]": {"target": "Fuc(a1-2)Gal(b1-4)GlcNAc(b1-3)Gal(b1-4)GlcNAc", "how_it_was_run": "as §1"}, "[25]": {"target": "Fuc(a1-2)Gal(b1-4)GlcNAc(b1-3)Gal(b1-4)GlcNAc(b1-2)Man(a1-3)[Fuc(a1-2)Gal(b1-4)GlcNAc(b1-3)Gal(b1-4)GlcNAc(b1-2)Man(a1-6)]Man(b1-4)GlcNAc(b1-4)GlcNAc", "how_it_was_run": "as §1"}, "[26]": {"target": "Fuc(a1-2)Gal(b1-4)GlcNAc(b1-3)Gal(b1-4)GlcNAc(b1-3)Gal(b1-4)GlcNAc", "how_it_was_run": "as §1"}, "[27]": {"target": "Fuc(a1-2)Gal(b1-4)GlcNAc(b1-3)GalNAc", "how_it_was_run": "as §1"}, "[28]": {"target": "Fuc(a1-2)Gal(b1-4)GlcNAc(b1-3)[Fuc(a1-2)Gal(b1-4)GlcNAc(b1-6)]GalNAc", "how_it_was_run": "as §1"}, "[29]": {"target": "Fuc(a1-2)Gal(b1-4)GlcNAc(b1-3)[Fuc(a1-3)[Gal(b1-4)]GlcNAc(b1-6)]Gal(b1-4)Glc", "how_it_was_run": "as §1"}, "[30]": {"target": "Fuc(a1-2)Gal(b1-4)GlcNAc(b1-6)GalNAc", "how_it_was_run": "as §1"}, "[31]": {"target": "Fuc(a1-2)Gal(b1-4)GlcNAc6S", "how_it_was_run": "as §1"}}, "note": "This is one part of the list."}
{"binder": "SUN4 (Saccharomyces cerevisiae), P53616 (protein) MGSSHHHHHHSSGLVPRGSHNGSIYGDLADFSGPYEKFEDGTIPCGQFPSGQGVIPISWLDEGGWSGVENTDTSTGGSCKEGSYCSYACQPGMSKTQWPSDQPSDGRSIGGLLCKDGYLYRSNTDTDYLCEWGVDAAYVVSELSNDVAICRTDYPGTENMVIPTYVQAGDSLPLTVVDQDTYYTWQGLKTSAAYYVNNAGISVEDACVWGSSSSGVGNWAPLNFGAGSSDGVAYLSLIPNPNNGNALNFNVKIVAADDSSTVNGECIYENGSFSGGSDGCTVSVTAGKAKFVLYN", "values": [{"measurement": "glycan array binding signal (z-score)", "setting": "Fuc(a1-2)Gal", "result": 0.003}, {"measurement": "glycan array binding signal (z-score)", "setting": "Fuc(a1-2)Gal(b1-3)GalNAc", "result": -0.075}, {"measurement": "glycan array binding signal (z-score)", "setting": "[1]", "result": 0.002}, {"measurement": "glycan array binding signal (z-score)", "setting": "[2]", "result": -0.142}, {"measurement": "glycan array binding signal (z-score)", "setting": "[3]", "result": 0.454}, {"measurement": "glycan array binding signal (z-score)", "setting": "[4]", "result": -1.17}, {"measurement": "glycan array binding signal (z-score)", "setting": "[5]", "result": -0.245}, {"measurement": "glycan array binding signal (z-score)", "setting": "Fuc(a1-2)Gal(b1-3)GlcNAc", "result": -0.091}, {"measurement": "glycan array binding signal (z-score)", "setting": "[6]", "result": 1.38}, {"measurement": "glycan array binding signal (z-score)", "setting": "[7]", "result": 0.022}, {"measurement": "glycan array binding signal (z-score)", "setting": "[8]", "result": -0.078}, {"measurement": "glycan array binding signal (z-score)", "setting": "[9]", "result": -0.157}, {"measurement": "glycan array binding signal (z-score)", "setting": "[10]", "result": 0.442}, {"measurement": "glycan array binding signal (z-score)", "setting": "[11]", "result": -0.634}, {"measurement": "glycan array binding signal (z-score)", "setting": "[12]", "result": -1.25}, {"measurement": "glycan array binding signal (z-score)", "setting": "[13]", "result": 0.054}, {"measurement": "glycan array binding signal (z-score)", "setting": "[14]", "result": -0.192}, {"measurement": "glycan array binding signal (z-score)", "setting": "[15]", "result": -0.278}, {"measurement": "glycan array binding signal (z-score)", "setting": "[16]", "result": 1.14}, {"measurement": "glycan array binding signal (z-score)", "setting": "[17]", "result": -0.932}, {"measurement": "glycan array binding signal (z-score)", "setting": "[18]", "result": 0.096}, {"measurement": "glycan array binding signal (z-score)", "setting": "[19]", "result": 2.65}, {"measurement": "glycan array binding signal (z-score)", "setting": "Fuc(a1-2)Gal(b1-4)Glc", "result": -0.964}, {"measurement": "glycan array binding signal (z-score)", "setting": "Fuc(a1-2)Gal(b1-4)Glc6S", "result": -0.114}, {"measurement": "glycan array binding signal (z-score)", "setting": "Fuc(a1-2)Gal(b1-4)GlcNAc", "result": -0.67}, {"measurement": "glycan array binding signal (z-score)", "setting": "[20]", "result": 0.036}, {"measurement": "glycan array binding signal (z-score)", "setting": "[21]", "result": -0.18}, {"measurement": "glycan array binding signal (z-score)", "setting": "[22]", "result": 0.745}, {"measurement": "glycan array binding signal (z-score)", "setting": "[23]", "result": 0.729}, {"measurement": "glycan array binding signal (z-score)", "setting": "[24]", "result": 0.379}, {"measurement": "glycan array binding signal (z-score)", "setting": "[25]", "result": 1.88}, {"measurement": "glycan array binding signal (z-score)", "setting": "[26]", "result": 0.397}, {"measurement": "glycan array binding signal (z-score)", "setting": "[27]", "result": 0.38}, {"measurement": "glycan array binding signal (z-score)", "setting": "[28]", "result": 0.387}, {"measurement": "glycan array binding signal (z-score)", "setting": "[29]", "result": 0.41}, {"measurement": "glycan array binding signal (z-score)", "setting": "[30]", "result": 0.954}, {"measurement": "glycan array binding signal (z-score)", "setting": "[31]", "result": 0.645}]}
